For test [1], the target named is T1, FLAG-RNF8 (rat) (UniProt Q4KLN8).
T1 sequence: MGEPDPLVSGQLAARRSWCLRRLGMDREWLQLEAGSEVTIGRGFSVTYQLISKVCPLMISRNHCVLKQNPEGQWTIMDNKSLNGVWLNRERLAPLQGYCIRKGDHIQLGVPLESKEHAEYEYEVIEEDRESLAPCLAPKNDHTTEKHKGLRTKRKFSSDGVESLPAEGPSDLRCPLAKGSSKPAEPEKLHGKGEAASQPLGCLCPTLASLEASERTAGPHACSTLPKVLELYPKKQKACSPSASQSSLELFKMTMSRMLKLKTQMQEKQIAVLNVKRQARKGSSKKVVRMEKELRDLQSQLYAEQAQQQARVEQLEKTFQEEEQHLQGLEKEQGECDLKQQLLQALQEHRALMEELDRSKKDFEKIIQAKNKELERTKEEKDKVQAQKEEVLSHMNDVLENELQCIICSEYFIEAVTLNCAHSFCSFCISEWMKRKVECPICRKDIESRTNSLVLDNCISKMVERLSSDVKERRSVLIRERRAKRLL
The test is described as follows: affinity purification with mass spectrometry; FLAG-RNF8 precipitated from Neuro2A lysate on FLAG M2 agarose, 4 h; wash 50 mM Tris-HCl pH8.0, 150 mM NaCl, 0.1% Triton X-100; eluted with 3xFLAG peptide; LC-MS/MS; ComPASS analysis.

By UniProt entry, the sequences of proteins in these tests, tags left out.
UniProt Q5NCX5: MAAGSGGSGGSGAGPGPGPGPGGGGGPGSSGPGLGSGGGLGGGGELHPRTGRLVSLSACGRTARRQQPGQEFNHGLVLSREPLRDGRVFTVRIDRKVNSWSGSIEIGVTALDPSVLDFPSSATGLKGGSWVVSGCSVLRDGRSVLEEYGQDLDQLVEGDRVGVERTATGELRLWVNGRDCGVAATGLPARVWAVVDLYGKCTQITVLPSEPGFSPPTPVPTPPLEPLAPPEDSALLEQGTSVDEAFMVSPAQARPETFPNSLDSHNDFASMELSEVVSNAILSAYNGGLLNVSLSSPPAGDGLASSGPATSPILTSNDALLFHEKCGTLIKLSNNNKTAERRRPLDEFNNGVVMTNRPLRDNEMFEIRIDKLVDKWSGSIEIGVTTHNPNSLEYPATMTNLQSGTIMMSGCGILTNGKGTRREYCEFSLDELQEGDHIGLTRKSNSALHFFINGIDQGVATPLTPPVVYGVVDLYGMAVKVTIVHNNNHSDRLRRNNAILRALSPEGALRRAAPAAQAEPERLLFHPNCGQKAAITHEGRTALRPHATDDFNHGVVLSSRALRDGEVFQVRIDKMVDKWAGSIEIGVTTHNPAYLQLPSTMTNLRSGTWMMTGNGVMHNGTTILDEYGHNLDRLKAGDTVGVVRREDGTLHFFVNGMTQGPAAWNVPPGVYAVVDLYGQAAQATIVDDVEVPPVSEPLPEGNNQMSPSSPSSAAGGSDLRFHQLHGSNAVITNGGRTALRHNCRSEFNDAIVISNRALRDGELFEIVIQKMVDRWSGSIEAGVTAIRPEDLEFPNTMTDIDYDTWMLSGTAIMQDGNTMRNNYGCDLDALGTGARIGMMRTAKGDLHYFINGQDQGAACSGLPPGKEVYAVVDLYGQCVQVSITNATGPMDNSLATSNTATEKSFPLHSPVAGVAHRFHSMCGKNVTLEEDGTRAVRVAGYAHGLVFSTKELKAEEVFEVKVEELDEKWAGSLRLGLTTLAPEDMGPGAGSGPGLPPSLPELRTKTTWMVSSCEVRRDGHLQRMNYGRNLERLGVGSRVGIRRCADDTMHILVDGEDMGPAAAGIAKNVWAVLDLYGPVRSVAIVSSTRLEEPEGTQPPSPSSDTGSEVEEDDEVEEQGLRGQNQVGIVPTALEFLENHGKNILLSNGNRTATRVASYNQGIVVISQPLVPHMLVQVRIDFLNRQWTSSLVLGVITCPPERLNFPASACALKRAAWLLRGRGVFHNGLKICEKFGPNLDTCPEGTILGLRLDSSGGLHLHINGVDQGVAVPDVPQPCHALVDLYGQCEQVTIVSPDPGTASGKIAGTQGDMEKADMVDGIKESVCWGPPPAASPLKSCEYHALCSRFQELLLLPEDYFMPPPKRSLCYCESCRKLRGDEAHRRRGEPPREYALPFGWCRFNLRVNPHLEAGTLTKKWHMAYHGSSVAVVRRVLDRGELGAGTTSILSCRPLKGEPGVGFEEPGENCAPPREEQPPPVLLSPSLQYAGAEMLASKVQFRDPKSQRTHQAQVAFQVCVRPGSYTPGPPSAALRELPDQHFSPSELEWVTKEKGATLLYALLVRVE
UniProt Q4U2R1: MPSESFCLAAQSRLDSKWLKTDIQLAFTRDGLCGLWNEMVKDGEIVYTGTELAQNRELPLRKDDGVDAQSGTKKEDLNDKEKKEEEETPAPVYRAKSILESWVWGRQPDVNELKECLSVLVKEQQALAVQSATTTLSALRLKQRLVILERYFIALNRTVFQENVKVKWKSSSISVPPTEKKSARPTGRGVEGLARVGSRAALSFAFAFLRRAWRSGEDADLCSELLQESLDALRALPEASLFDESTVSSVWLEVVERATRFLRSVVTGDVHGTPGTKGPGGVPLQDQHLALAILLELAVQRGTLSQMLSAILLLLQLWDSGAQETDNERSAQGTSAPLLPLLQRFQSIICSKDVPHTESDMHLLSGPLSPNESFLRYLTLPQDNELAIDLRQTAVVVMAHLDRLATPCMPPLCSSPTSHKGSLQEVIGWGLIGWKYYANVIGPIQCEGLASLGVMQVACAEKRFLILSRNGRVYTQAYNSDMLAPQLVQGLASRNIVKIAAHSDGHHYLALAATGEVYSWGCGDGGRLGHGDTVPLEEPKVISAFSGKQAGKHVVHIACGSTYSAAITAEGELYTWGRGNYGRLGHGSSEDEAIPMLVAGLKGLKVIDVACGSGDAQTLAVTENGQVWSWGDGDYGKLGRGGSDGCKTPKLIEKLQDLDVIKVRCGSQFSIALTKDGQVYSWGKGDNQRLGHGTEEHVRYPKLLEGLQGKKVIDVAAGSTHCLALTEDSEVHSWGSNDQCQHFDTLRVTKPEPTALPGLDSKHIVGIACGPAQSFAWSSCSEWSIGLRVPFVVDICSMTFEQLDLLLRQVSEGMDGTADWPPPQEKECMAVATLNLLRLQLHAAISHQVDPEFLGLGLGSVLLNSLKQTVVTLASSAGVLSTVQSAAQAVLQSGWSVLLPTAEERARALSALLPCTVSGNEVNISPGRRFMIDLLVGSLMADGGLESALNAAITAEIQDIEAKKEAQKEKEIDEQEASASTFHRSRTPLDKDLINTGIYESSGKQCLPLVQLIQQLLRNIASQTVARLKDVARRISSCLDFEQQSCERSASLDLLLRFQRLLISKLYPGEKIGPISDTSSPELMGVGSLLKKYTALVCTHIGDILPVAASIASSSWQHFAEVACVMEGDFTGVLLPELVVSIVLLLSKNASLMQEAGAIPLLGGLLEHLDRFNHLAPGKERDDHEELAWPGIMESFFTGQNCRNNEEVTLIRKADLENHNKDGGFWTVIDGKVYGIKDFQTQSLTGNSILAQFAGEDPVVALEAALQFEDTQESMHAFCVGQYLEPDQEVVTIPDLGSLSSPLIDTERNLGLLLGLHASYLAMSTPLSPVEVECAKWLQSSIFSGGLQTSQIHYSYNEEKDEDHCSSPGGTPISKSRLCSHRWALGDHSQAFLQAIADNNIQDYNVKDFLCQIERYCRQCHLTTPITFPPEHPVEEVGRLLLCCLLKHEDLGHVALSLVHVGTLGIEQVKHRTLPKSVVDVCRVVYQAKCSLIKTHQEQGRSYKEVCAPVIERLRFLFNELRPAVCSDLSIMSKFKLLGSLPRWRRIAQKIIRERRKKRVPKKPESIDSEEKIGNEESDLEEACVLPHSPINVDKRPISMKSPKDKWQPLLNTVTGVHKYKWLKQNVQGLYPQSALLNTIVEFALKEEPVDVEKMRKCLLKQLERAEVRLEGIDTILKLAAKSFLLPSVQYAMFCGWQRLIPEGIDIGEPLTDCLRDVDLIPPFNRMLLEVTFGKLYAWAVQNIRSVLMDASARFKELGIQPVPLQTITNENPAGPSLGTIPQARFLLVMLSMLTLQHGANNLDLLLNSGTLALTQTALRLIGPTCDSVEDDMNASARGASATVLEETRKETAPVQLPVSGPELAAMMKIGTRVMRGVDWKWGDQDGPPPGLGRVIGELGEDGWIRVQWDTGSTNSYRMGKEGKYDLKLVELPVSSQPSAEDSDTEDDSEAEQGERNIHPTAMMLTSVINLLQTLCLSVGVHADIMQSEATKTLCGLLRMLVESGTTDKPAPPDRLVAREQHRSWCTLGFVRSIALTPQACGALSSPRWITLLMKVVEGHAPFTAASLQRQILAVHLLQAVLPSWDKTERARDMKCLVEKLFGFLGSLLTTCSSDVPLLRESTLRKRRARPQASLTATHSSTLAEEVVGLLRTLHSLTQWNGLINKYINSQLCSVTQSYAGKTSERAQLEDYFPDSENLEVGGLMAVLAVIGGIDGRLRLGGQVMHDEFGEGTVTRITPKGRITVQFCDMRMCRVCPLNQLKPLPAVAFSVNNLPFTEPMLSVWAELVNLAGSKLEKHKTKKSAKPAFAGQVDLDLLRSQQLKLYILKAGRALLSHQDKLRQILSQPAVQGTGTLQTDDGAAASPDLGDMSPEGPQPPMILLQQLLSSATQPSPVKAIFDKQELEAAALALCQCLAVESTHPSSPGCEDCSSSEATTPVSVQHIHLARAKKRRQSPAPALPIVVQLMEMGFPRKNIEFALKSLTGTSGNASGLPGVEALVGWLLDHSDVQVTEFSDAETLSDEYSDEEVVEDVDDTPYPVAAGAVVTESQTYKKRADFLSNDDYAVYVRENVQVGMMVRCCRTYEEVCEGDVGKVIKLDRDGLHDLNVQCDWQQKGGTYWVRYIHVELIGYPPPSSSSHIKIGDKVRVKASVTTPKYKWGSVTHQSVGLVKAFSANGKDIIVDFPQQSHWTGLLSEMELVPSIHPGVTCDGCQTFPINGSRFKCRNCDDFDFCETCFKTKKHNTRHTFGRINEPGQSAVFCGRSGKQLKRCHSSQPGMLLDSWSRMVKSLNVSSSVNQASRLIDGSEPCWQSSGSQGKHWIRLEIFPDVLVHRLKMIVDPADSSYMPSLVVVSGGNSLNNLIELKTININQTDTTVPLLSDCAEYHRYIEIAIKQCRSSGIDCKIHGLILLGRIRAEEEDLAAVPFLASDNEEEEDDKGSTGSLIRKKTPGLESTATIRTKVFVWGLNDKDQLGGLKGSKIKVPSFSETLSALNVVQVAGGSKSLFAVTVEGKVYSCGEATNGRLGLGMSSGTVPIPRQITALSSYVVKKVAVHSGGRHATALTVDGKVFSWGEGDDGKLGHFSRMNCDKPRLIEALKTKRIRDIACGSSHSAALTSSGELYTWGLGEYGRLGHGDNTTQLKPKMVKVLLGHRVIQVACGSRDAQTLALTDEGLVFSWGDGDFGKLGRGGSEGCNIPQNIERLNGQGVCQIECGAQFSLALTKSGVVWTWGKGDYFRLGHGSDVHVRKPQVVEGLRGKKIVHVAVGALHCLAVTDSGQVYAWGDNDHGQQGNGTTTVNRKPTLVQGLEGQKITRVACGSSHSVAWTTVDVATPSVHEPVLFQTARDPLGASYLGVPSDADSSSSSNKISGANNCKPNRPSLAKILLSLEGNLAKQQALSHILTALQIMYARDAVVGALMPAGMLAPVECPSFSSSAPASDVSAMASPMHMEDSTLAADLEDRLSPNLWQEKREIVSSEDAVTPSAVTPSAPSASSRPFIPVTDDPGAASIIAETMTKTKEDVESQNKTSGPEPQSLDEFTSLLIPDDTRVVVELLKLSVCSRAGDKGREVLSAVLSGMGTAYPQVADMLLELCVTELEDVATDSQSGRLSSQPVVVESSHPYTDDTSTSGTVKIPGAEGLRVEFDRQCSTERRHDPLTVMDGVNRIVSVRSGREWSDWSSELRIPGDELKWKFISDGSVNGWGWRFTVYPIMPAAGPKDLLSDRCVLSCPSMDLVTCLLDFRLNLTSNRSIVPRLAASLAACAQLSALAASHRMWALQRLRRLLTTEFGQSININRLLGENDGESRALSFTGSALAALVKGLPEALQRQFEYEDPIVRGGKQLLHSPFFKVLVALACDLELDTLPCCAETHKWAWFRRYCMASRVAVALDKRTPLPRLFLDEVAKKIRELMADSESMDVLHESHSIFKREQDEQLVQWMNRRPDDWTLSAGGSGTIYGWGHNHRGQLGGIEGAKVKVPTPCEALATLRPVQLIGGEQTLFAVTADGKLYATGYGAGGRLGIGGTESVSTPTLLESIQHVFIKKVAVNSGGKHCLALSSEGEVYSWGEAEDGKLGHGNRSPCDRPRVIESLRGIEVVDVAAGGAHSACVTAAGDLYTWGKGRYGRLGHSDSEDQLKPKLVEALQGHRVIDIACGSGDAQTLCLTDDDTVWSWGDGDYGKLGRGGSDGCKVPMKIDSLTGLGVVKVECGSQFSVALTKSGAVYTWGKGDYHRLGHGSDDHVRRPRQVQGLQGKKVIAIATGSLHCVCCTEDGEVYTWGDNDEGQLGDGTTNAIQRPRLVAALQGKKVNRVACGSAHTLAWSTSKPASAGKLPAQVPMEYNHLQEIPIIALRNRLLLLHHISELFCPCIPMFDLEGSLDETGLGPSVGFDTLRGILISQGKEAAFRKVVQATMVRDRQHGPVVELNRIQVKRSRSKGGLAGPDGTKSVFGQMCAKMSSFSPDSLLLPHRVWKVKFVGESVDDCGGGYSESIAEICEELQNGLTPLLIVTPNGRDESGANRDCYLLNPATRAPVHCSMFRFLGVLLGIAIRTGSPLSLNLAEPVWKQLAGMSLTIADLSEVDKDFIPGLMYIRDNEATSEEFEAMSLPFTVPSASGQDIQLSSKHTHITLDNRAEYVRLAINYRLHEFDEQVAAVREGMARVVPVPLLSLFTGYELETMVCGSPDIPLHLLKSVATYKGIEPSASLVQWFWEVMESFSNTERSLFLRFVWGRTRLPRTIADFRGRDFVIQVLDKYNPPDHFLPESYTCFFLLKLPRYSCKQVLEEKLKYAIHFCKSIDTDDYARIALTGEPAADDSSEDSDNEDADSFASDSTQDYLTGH

Test [2] deals with T1, FLAG-RNF8 (rat). The description is as above. The source holds these as a separate data set.

The values below come from paper PMC5668370.

Like-named read-outs stand apart in the source and are kept apart here. No constants are given. Whether binding was seen depends on the method and setting. Binding seen in cells or lysates may run through a third protein. Here binding means that the protein was enriched with, or labelled near, the bait; the list need not be complete. Tags and fused reporters may be left off the sequences shown.

As for “NEURL4 (endogenous, Neuro2A) (from UniProt Q5NCX5 1-1563)”, the binding entry with FLAG-RNF8 (rat) [1] is “binds”.

For the molecule “HERC2 (endogenous, Neuro2A) (from UniProt Q4U2R1 1-4836)”, the binding result with FLAG-RNF8 (rat) [1] was “binds”.

B1: Anks1 (protein, UniProt P59672 1-1150)
chain: MGKEQELLEAARTGHLPAVEKLLSGKRLSSGFGGGGGGSGSGGGSGGGGLGSSSHPLSSLLSMWRGPNVNCVDSTGYTPLHHAALNGHRDVVEVLLRNDALTNVADSKGCYPLHLAAWKGDAQIVRLLIQQGPSHTRVNEQNALEIRELKKYGPFDPYINAKNNDNETALHCAAQYGHTEVVKALLEELTDPTMRNNKFETPLDLAALYGRLEVVKLLLGAHPNLLSCSTRKHTPLHLAARNGHKAVVQVLLDAGMDSNYQTEMGSALHEAALFGKTDVVQILLAAGIDVNIKDNRGLTALDTVRDLPSQKSQQIAALIEDHMTGKRSVKEVDRTSTAQLPLLSNTDAIAPMSQGSMEKTVTELILHFDTHADEEGPYEALYNAVSCHSLDSTASGRSSDRDSMNKEAEATGTRAAGVRPRERPPPPAKPPPDEEEEERVDKKYFPLAASEGLAVRPRIQSSAPQEEEEHPYELLLTAETKKLGTTDGRTEDHRQSGSGRSQDSVEGQDGQVPEQFSGLLHGSSPVCEVGQDPFQLLTAPSQSHPESSQQDACHEASMQLEEPGVQGTEPPQPGVPDQSKRVGLPAGLTALASRTYLDALTHTVPLRPAGAEEEDQSGPRSRAPPTSKPKAELKLSRSLSKSDSDLLTCSPTEDATMGSRSESLSNCSIGKKRLEKSPSFASEWDEIEKIMSSIGEGIDFSQEQQKISGSRTLEQSVGEWLESIGLQQYESKLLLNGFDDVRFLGSNVMEEQDLREIGISDPQHRRKLLQAARSLPKVKALGYDGVSPTSVPSWLDSLGLQDYVHSFLSSGYSSIDTVKNLWELELVNVLKVHLLGHRKRIIASLADRPYEEPPQKPPRFSQLRCQDLISQTSSPLSQNDSCTGRSADLLLPSADTSRRRHDSLPDPGTASRADRFRVQEEPSETKLTLRPPSLAAPYAPVQSWQHQPEKLIFESCGYEANYLGSMLIKDLRGTESTQDACAKMRKSTEHMKKIPTIILSITYKGVKFIDASNKNVIAEHEIRNISCAAQDPEDLCTFAYITKDLQTSHHYCHVFSTVDVNLTYEIILTLGQAFEVAYQLALQAQKSRTMAASAASMIETKSSKPVPKPRVGMRKSALEPPDSDQEAPSHASVSWIVDPKPDSKRSLSTN
Take B1: in the test with FLAG-RNF8 (rat) [2], the binding entry is “binds”.

B2: Gle1 (protein, UniProt Q8R322 1-699)
chain: MPSDGRCWETLRALRNTSKGRLRYDREWLLRYEDVLEECMSLPKLSSYSGWVVDHILPNTSGHTQESAPSSDNSPSSGSASGLYQSSLLKSPVRSSPQSPSPSSPNGTQSTHESPFTEPIAPQSSRAIKVEGCIRMYELAHRMRGTEGLRQWQEEQERKVRALSEMASEQLKRFDELKELKLHKEFQDLQEVMEKSTREALGHQEKLKEEHRHRAKILNLKLREAEQQRVKQAEQEQLRKEEGQVRLRSLYSLQEEVLQLNQQLDASSQHKELLSVDLAAFQTRGNQLCGLISSIIRTTLESGYPTAENQAEAERALQEMRDLLSDLEQEITRASQVKKKHEEEAKVKRQESQVQQGPAPPTQTSAPSPSPVGAQNEDLQVKVQDSTMQWYQQLQDASAKCVLAFEDLTSSKDSQTKKIKMDLQKAATIPVSQISTIAGSKLKEIFDKIHSLLSGKPVQSGGRSVSVTLNPQGLDFVQYKLAEKFVKQGEEEVASHHEAAFPIAVVASGIWMLHPKVGDLILAHLHKKCPYSVPFYPAFKEGMALEDYQRMLGYQVTDSKVEQQDNFLKRMSGMIRLYAAIIQLQWPYGNRQEAHPHGLNHGWRWLAQVLNMEPLSDVTATLLFDFLEVCGNALMKQYQVQFWKMILLIKEDYFPRIEAITSSGQMGSFIRLKQFLEKCLQRREIPVPRGFLTTSFWRS
As for B2, in the test with FLAG-RNF8 (rat) [2], the binding result is given as “binds”.
